## Primary screen of a compound library

Protein sequences, listed by entry. Tags and fused reporters are not part of them.
UniProt P9WNZ1, whole entry: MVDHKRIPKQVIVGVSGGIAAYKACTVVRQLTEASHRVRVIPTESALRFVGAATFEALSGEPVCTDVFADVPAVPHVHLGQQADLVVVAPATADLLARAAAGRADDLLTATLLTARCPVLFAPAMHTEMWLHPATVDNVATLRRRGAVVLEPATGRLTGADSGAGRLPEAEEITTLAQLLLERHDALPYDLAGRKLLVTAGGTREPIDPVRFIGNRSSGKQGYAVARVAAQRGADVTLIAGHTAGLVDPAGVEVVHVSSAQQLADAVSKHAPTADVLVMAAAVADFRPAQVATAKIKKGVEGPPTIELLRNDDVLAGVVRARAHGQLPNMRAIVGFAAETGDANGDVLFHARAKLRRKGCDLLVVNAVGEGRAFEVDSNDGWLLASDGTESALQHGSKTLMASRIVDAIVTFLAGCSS
UniProt P9WFT3, whole entry: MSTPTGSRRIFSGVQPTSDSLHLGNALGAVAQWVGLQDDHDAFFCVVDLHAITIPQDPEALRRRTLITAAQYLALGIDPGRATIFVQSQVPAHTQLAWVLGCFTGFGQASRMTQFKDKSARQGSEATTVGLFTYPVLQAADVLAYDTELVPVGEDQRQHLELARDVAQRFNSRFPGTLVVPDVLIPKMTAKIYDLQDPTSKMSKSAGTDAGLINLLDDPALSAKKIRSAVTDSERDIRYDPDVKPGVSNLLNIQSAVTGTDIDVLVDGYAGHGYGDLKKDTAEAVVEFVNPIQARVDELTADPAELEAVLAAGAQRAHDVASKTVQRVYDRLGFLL
UniProt I6X8D2, whole entry: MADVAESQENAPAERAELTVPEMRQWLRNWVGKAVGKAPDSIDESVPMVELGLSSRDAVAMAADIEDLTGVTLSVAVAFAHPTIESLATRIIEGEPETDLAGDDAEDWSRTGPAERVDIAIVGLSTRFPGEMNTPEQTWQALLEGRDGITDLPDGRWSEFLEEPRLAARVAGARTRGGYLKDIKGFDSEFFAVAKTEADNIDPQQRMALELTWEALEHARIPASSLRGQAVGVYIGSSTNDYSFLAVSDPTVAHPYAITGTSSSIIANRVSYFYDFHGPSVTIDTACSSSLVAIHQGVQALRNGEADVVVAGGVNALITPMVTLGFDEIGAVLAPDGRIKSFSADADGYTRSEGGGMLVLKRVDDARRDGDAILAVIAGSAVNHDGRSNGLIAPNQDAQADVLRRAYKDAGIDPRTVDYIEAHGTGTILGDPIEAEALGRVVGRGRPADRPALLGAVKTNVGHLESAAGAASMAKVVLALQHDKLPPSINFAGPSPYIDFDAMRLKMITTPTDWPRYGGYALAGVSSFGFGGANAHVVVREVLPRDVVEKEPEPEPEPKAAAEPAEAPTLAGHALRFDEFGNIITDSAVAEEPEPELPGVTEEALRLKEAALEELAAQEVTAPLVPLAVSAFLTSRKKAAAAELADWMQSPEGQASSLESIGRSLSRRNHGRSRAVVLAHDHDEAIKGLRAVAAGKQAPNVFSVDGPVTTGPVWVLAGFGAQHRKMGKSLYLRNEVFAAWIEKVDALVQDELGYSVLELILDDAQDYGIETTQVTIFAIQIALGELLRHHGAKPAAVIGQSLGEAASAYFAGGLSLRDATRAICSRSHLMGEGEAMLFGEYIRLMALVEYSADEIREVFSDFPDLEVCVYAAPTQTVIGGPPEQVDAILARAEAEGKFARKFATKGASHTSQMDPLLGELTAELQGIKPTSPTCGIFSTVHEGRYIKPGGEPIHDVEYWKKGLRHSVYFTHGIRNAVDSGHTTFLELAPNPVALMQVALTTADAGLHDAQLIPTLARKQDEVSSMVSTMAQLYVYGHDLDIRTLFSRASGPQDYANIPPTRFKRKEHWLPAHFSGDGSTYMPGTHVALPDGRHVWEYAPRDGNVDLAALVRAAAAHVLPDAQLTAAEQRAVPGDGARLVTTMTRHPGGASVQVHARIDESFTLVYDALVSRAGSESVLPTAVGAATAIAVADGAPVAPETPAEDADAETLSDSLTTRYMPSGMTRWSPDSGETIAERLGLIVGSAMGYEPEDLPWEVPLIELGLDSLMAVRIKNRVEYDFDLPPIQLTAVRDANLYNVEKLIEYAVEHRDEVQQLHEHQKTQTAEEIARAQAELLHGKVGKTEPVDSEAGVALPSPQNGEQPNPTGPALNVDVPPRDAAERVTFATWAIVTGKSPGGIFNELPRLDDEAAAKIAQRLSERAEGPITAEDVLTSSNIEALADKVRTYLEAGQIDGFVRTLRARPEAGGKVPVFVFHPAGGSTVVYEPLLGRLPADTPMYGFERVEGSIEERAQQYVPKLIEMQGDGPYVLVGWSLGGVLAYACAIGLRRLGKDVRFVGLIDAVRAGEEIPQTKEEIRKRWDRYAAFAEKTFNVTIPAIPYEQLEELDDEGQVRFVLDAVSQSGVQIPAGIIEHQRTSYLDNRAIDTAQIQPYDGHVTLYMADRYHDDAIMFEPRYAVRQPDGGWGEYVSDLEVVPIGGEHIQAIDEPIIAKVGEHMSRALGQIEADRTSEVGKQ

Measurements from “University of Dundee, Small-Polar-MMV Screening Library” (2021), ChEMBL document CHEMBL3988442.

A: 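Enzyme assay of CoaBC with a phosphate dye (Biomol Green) read at 650 nm. Target: Coenzyme A biosynthesis protein CoaBC, Mycobacterium tuberculosis (UniProt P9WNZ1). Compounds at 30 µM. Direction is inferred from only a few compounds that gave an IC50; most scored high, so higher reads as stronger inhibition. Most strong results did not repeat in a second test. Size under these conditions: about 67,000 compounds, about 40 of them at 50% or above in at least one test.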
B: 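Enzyme assay of tryptophanyl-tRNA synthetase; the read-out is not stated. Target: Tryptophan-tRNA ligase, Mycobacterium tuberculosis (UniProt P9WFT3). Concentration: 10 µM. Direction is not recorded; retested compounds ran higher, which suggests that high means inhibition. Size under these conditions: about 65,000 compounds, about 64 of them at 50% or above in at least one test.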
C: 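Polyketide synthase Pks13, Mycobacterium tuberculosis (UniProt I6X8D2). Enzyme assay of the thioesterase domain of polyketide synthase 13; the read-out is not stated. Tested at 30 µM. The record gives no direction; the compounds picked for IC50 retests had high values, so higher reads as stronger inhibition. Of about 67,000 compounds tested this way, about 300 (0.46%) reached 50% or more in at least one test.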

Results are given as percent effect. The controls that fix the scale are not given in the record; negative values are as filed. The compounds are a random part of those screened. A dash means the value is not listed here; it may have been measured.

SMILES	A	B	C
CSCc1cccc(C(=O)N2CCN(CC(C)O)CC2)c1 (centres undefined)	1.687	2.958	0.8285
CN1C(=O)CCCC12CCCN(C(=O)c1ccoc1)C2 (centres undefined)	2.118	-2.488	-17.85
c1cc(NCc2ccncc2)nc(C2CCCNC2)c1 (centres undefined)	-9.817	-8.297	-9.439
CCC(NC(=O)NCC(=O)NC(C)C)c1cc(F)ccc1F (centres undefined)	0.8872	-0.05974	-27.98
CNC(=O)c1cnc2n1CCN(C(=O)Cc1ccccn1)C2	10.45	-1.098	-30.31
O=C(CC1CCc2ccccc21)N1CCC(O)(c2cccnc2)CC1 (centres undefined)	-9.906	2.309	-8.93
COC(=O)c1ccc(C(=O)NCC(O)c2cccn2C)cc1 (centres undefined)	-0.1272	0.297	13.16
CC(C)c1nnc2n1CC(CNc1cnc3ccccc3n1)CC2 (centres undefined)	1.985	2.982	6.064
CCOc1ccc(C(=O)NCCCNc2ncccn2)cc1	-2.091	-1.774	-6.89
CS(=O)(=O)N1CCOCC2(CCN(Cc3ccoc3)CC2)C1	0.4878	-	8.452
Cc1ccc(OCc2nc(CNCC3CN(C)CCO3)cs2)cc1 (centres undefined)	1.673	20.45	-17
CC(=O)N1CCC(c2nc(C)cc(-c3ccccc3C(=O)O)n2)CC1	0.9804	-	-1.94
CN1C(=O)CC2(CCN(S(=O)(=O)N(C)C)CC2)c2ccccc21	-	0.9709	18.05
Cn1nc(C(=O)NN2CCOCC2)c(Cl)c1C(F)(F)F	0	3.565	-12.13
Cc1nc2cc(C(=O)N3CCCC(n4ccnc4)C3)ccc2n1C (centres undefined)	3.959	-8.144	-19.75
Cc1ncc2c(n1)CCCC2NC(=O)c1ccc(Cn2cccn2)cc1 (centres undefined)	-2.41	4.207	-
O=C1CSC(c2ccccc2)c2c(n(C3CCOCC3)[nH]c2=O)N1 (centres undefined)	1.768	15.9	-40.9
CC(C(=O)N1CCCCC1)N1CCN(c2nccs2)CC1 (centres undefined)	1.394	-3.644	-28.6
CC(Cn1cccn1)NCc1csc(-c2ncccn2)n1 (centres undefined)	5.704	-24.44	7.157
Cc1ccc(F)c(OC2(C(=O)O)CCN(C(=O)c3ccco3)CC2)c1	1.818	-1.347	-2.65
Cc1nn(C)c(C)c1CN(C)S(=O)(=O)c1c(C)n[nH]c1C	-8.554	-1.883	-6.27
Nc1nc2c(c(N3CCN(C(=O)c4cccs4)CC3)n1)CCCC2	3.204	-0.6552	-18.6
CN(C)S(=O)(=O)N1C[C@H]2CCC[C@@]2(COc2cccnc2)C1	1.426	-1.984	-34.01
Cn1cc(C2(C)CN(C(=O)COc3ccccc3F)CCO2)cn1 (centres undefined)	4.783	-2.023	-41.31
CCOCC(=O)N(Cc1ccco1)c1ccc(OC)c(F)c1	4.481	-2.676	-11.49
COCc1cnc2n1CCN(C(=O)c1oc3ccccc3c1C)C2C (centres undefined)	-0.4926	6.132	-47.62
FC(F)(F)c1cc(C2CCCN(Cc3cccnc3)C2)n[nH]1 (centres undefined)	0.9732	5.447	0.5417
CN(C)CC(=O)N1Cc2nnn(C)c2C(COCc2ccccn2)C1 (centres undefined)	-1.768	2.822	27.02
CCc1nc(N2CCC3(CC2)[C@H](O)C[C@@H]3O)ncc1C	4.713	3.791	-7.672
Cc1csc(CN2CC[C@H]3C[C@@H](c4nc(C)no4)O[C@@H]3C2)n1	0.1233	-0.4504	-2.677
c1ccc(Cn2cc3c(n2)C(CNCC2CCOCC2)OCC3)nc1 (centres undefined)	-11.11	-4.056	-21.09
CC1CN(Cc2nc(Cc3ccccc3F)no2)CCN1C (centres undefined)	3.553	-1.227	-23.89
O=C(NCC1CCS(=O)(=O)C1)Nc1ccccn1 (centres undefined)	-0.3241	7.498	19.15
CCN(CC)CC(=O)NCc1cccnc1-n1cnc2ccccc21	2.778	-0.486	-11.6
CC(C)c1nc(C2CCCN(c3nccc(C(F)(F)F)n3)C2)no1 (centres undefined)	1.587	0	14.41
CC(C)(O)CCc1cccc(C(=O)NCC2CN(S(C)(=O)=O)CCO2)c1 (centres undefined)	0.8032	11.92	36.24
COCCOc1ncccc1CNC(=O)N1CCOCC1	-4.756	0.5298	-2.318
Cc1c(CC(C#N)C(=O)Nc2cccc(O)c2)cnn1C (centres undefined)	-3.538	4.773	-12.28
CNC(=O)NC(=O)C(C)N1CCC(c2c[nH]c3ccc(OC)cc23)CC1 (centres undefined)	0.615	-2.768	-15.48
CC(C)(O)CN1CCN(C(=O)COCc2ccccc2Cl)CC1	-1.141	1.946	-8.111
O=C(NC1CCCC1)c1ccc(COCC(F)(F)F)o1	-2.058	-2.022	-17.24
COc1cccc(N2Cc3nc(=O)[nH]n3C2=O)c1	3.64	-2.122	-
O=C([C@H]1C[C@H]2OCC[C@H]2N(CCc2ccccc2)C1)N1CCCO1	3	2.971	-14.17
CC(C)N1CCOCC2(CN(Cc3cccs3)CCO2)C1 (centres undefined)	-1.474	-1.036	-9.985
c1cnc(Nc2cncc(C3CCCN(c4ncccn4)C3)n2)nc1 (centres undefined)	2.663	-	-0.9977
CCn1cc(S(=O)(=O)NCC2(N3CCOCC3)CCCCC2)c(C)n1	-4.821	8.157	-20.28
Cn1cc(N2Cc3nc(N4CCOCC4)ncc3C2=O)cn1	3.464	7.124	5.103
COCCn1cc(CCC(=O)Nc2c(C)nn(C)c2C)c2ccccc21	0.2301	18.87	30.27
CS(=O)(=O)CC1(CNc2ccc(C#N)c(C(F)(F)F)c2)CC1	-13.15	-1.624	-10.75
CCc1cnc(NCc2nc(COC)no2)nc1	5.484	-1.005	-21.82
COCCN1CCO[C@H]2CCN(C(=O)c3ccnnc3)CC[C@@H]21	-	-2.035	-15.41
Cc1cnn(Cc2cc(F)ccc2F)c1NC(=O)NC1CC1	4.464	1.599	-4.205
COCc1nn(Cc2ccc(Cl)s2)c(=O)o1	-0.1255	-4.591	-13.37
O=C(NC[C@H]1OC[C@@H](NC2COC2)[C@@H]1O)C1CCCC1	5.077	0.07588	-0.8053
O=C(CCn1cccc1)N1CCc2[nH]nc(COc3ccccc3)c2C1	0.2427	1.008	-5.766
O=C1CC(NCc2ccc(OC(F)F)cc2)CN1Cc1cccc(F)c1 (centres undefined)	15.37	3.462	13.77
O=C(N1CCCC1)N1C[C@@H]2CN(Cc3ccoc3)CCO[C@@H]2C1	0.3708	-3.108	6.2
CCCc1cc(=O)[nH]c(-c2ccccc2CN(C)CCC(C)C)n1	14.65	2.429	-20.25
CC(C)c1nccc(CN2CCCC(O)(CN(C)C)C2)n1 (centres undefined)	-30.95	-1.61	-4.984
Cc1nsc(NCCNS(=O)(=O)c2ccccc2)n1	-0.6483	-0.7498	-31.77
Cc1cc(CC(=O)NC(C)c2ccc(OCC3CC3)c(F)c2)n[nH]1 (centres undefined)	6.526	-5.111	9.802
CC(C)N(Cc1ccccc1)Cc1csc(-c2ncccn2)n1	1.071	-3.815	-24.4
CN(C)C[C@H]1OC[C@@H]2CCN(C(=O)c3cccn3C)C[C@@H]21	-21.15	2.515	-